Source: article PMC6726731, “A pretargeted multimodal approach for image-guided resection in a xenograft model of colorectal cancer” (EJNMMI Research, 2019)

Assay: Biodistribution (γ-counting) in s.c. CEA-negative SK-RC-52 control tumors after TF2 pretargeting
Conditions: female, BALB/cAnNRj-Foxn1^nu/nu nude, mouse, in vivo, iv, total radioactivity
Excerpt: Female BALB/cAnNRj-Foxn1^nu/nu nude mice (7–9 weeks-old, 18–22-g body weight; Janvier), housed in individually ventilated cages (5 mice per cage) under non-sterile standard conditions with free access to standard animal chow and water, were adapted to laboratory conditions for 1 week before experimental use. For the biodistribution and microSPECT/CT experiments, mice were subcutaneously inoculated with 2 × 10^6 LS174T cells (left flank) and 2 × 10^6 SK-RC-52 cells (right flank) both suspended in 200 μL RPMI-1640 medium. For the image-guided resection experiment, intraperitoneal tumor growth was induced by an intraperitoneal injection of 3 × 10^5 LS174T cells suspended in 200 μL RPMI-1640 medium. […]
Three different dose levels (0, 0.8, and 8 nmol) of TF2 or controls were tested with a 1:20 TF2:HSG-peptide ratio of each HSG-peptide in two subsets of 30 mice (5 mice per group). […] For this purpose, tissues of interest (tumor, muscle, lung, spleen, kidney, liver, pancreas, stomach, and duodenum) were dissected and weighed after which activity was measured in a shielded 3-in.-well-type γ-counter (Perkin-Elmer, Boston, MA, USA). […] For calculation of the uptake of activity in each tissue as a fraction of the injected activity, three aliquots of the injection dose were counted in the γ-counter simultaneously.

## NC(=O)[C@@H](CCCCNC(=O)CNC(=O)CCC(=O)NCCc1c[nH]cn1)NC(=O)[C@@H](CCC(=O)O)NC(=O)[C@@H](CCCCNC(=O)CNC(=O)CCC(=O)NCCc1c[nH]cn1)NC(=O)[C@@H](Cc1ccc(O)cc1)NC(=O)CN1CCN(CC(=O)O)CCN(CC(=O)O)CCN(CC(=O)O)CC1 [^111In-IMP-288, metal not drawn]
  tissue uptake at 24 h: 0.07 %ID/g
